Test: general procedure: Fmoc solid-phase peptide synthesis; 2-Cl-Trt-Cl resin; TBTU/HOBt, diisopropylethylamine
Conditions: whole synthesis, scale of the general procedure 20 g resin

In the case of Bivalirudin, the “final HPLC purity” value (214 nm) is reported as “at least 99.0%” and the “final HPLC purity” value (HPLC, Synergi C12 Max-RP, UV 214 nm) is reported as “at least 99.0%”.

Source: patent US20160324943 (published 2016)
